Assay results: PMC10470592
These are yes or no findings as the source states them, for the method shown. In cells and extracts the contact can be indirect. Binding calls can cover weak binding; strength is not graded here. Sequences can lack the tags named with a protein.

Protein sequences, listed by entry. Tags and fused reporters are not part of them. Lines headed by an entry give the natural chain unless they say otherwise; changes in a name come on top.
UniProt Q14653: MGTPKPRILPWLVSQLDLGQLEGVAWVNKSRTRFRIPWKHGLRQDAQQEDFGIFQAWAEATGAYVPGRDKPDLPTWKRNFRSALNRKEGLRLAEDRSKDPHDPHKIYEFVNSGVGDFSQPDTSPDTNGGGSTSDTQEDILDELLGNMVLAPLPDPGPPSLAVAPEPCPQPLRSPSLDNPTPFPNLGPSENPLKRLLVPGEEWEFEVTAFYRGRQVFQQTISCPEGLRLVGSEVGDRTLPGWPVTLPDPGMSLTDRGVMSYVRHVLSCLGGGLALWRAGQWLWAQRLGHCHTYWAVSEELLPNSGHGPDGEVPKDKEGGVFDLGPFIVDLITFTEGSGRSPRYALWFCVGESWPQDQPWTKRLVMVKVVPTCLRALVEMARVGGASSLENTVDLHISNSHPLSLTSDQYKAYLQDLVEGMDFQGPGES

Columns and labels:
Assay in all cases: co-IP; 293T cells co-transfected with HA-tagged SHIP1 constructs and Flag-tagged partners; IP using anti-Flag beads and immunoblot with anti-HA (Fig. 3C, 5A; also Fig. 3H, 3I, S3A, S5A); Flag-IRF3 with HA-SHIP1 also in NDP52 KO 293T cells, where the interaction was reduced (Fig. 5J)
[1] = biological target: T1, Flag-tagged NDP52 (CALCOCO2) (not stated (human or mouse cDNA cloned)) (UniProt Q13137)
T1 sequence: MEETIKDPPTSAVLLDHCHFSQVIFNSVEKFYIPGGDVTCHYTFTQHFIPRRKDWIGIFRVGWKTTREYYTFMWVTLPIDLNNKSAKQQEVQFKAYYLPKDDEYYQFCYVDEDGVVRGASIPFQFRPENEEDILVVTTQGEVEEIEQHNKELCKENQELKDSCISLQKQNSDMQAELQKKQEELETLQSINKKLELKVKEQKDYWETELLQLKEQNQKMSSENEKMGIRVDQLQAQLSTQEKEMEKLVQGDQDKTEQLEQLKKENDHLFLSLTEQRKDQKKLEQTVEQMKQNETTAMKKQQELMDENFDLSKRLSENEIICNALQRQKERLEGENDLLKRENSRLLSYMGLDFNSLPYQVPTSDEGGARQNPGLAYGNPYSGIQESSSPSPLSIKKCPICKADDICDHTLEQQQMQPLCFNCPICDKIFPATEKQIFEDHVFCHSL

[2] = biological target: Flag-IRF3 ΔC (DBD+PRO+IAD)
[3] = biological target: IRF3-5D (a constitutively active mutant of IRF3) (UniProt Q14653)
[4] = biological target: Flag-IRF3 ΔDBD (PRO+IAD+RD)

“HA-SHIP1 phosphatase domain (domain or fragment)” was tested, and the binding [1] was “binds”.

B1: HA-tagged SHIP1 (Src homology 2 containing inositol phosphatase 1), full length (protein, UniProt Q92835 1-1189)
chain: MVPCWNHGNITRSKAEELLSRTGKDGSFLVRASESISRAYALCVLYRNCVYTYRILPNEDDKFTVQASEGVSMRFFTKLDQLIEFYKKENMGLVTHLQYPVPLEEEDTGDDPEEDTVESVVSPPELPPRNIPLTASSCEAKEVPFSNENPRATETSRPSLSETLFQRLQSMDTSGLPEEHLKAIQDYLSTQLAQDSEFVKTGSSSLPHLKKLTTLLCKELYGEVIRTLPSLESLQRLFDQQLSPGLRPRPQVPGEANPINMVSKLSQLTSLLSSIEDKVKALLHEGPESPHRPSLIPPVTFEVKAESLGIPQKMQLKVDVESGKLIIKKSKDGSEDKFYSHKKILQLIKSQKFLNKLVILVETEKEKILRKEYVFADSKKREGFCQLLQQMKNKHSEQPEPDMITIFIGTWNMGNAPPPKKITSWFLSKGQGKTRDDSADYIPHDIYVIGTQEDPLSEKEWLEILKHSLQEITSVTFKTVAIHTLWNIRIVVLAKPEHENRISHICTDNVKTGIANTLGNKGAVGVSFMFNGTSLGFVNSHLTSGSEKKLRRNQNYMNILRFLALGDKKLSPFNITHRFTHLFWFGDLNYRVDLPTWEAETIIQKIKQQQYADLLSHDQLLTERREQKVFLHFEEEEITFAPTYRFERLTRDKYAYTKQKATGMKYNLPSWCDRVLWKSYPLVHVVCQSYGSTSDIMTSDHSPVFATFEAGVTSQFVSKNGPGTVDSQGQIEFLRCYATLKTKSQTKFYLEFHSSCLESFVKSQEGENEEGSEGELVVKFGETLPKLKPIISDPEYLLDQHILISIKSSDSDESYGEGCIALRLEATETQLPIYTPLTHHGELTGHFQGEIKLQTSQGKTREKLYDFVKTERDESSGPKTLKSLTSHDPMKQWEVTSRAPPCSGSSITEIINPNYMGVGPFGPPMPLHVKQTLSPDQQPTAWSYDQPPKDSPLGPCRGESPPTPPGQPPISPKKFLPSTANRGLPPRTQESRPSDLGKNAGDTLPQEDLPLTKPEMFENPLYGSLSSFPKPAPRKDQESPKMPRKEPPPCPEPGILSPSIVLTKAQEADRGEGPGKQVPAPRLRSFTCSSSAEGRAAGGDKSQGKPKTPVSSQAPVPAKRPIKPSRSEINQQTPPTPTPRPPLPVKSPAVLHLQHSKGRDYRDNTELPHHGKHRPEEGPPGPLGRTAMQ
With B1 the binding [2] was “binds”, the binding [3] was “binds” and the binding [4] was “binds”.
